According to PubChem BioAssay AID2685 (National Center for Advancing Translational Sciences (NCATS), 2010):
The list shows a part of the results. Shown are side measurements of this screen, not its main read-out; they come without a call. The list favours compounds with an active or inconclusive main result. Potencies come from curve fits of mixed quality, noted in brackets.

Assay: qHTS Assay for Lipid Storage Modulators in Drosophila S3 Cells;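 on cell number change: cells counted by Cell Tracker Red CMTPX staining in the red channel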
Conditions: BODIPY lipid droplet fluorescence, 18-24 h; for cell number change: measured here: cell count max response, cells fed with added oleic acid
Procedure, shortened: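 Drosophila S3 cells got compounds at several concentrations plus oleic acid (400 uM solution). Laser-scanning cytometry with 488 nm excitation read lipid droplets at 500-530 nm and cells at 575-640 nm. Percent activity was relative to 20 uM Triacsin C.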

[1] = measured here: cell number channel AC50, cells fed with added oleic acid
[2] = measured here: lipid fluorescence (Fed channel) AC50, cells fed with added oleic acid

SMILES	cell number change [%]	AC50 [1]	AC50 [2]
O=S(=O)(c1ccc(Cl)cc1)N1CCN(Cc2c[nH]c3ccccc23)CC1	34	11.6 µM [rising, single point]	–
O=C(COC(=O)CNC(=O)c1cccs1)Nc1ccc(C(F)(F)F)cc1[N+](=O)[O-]	-1.2	–	–
COc1ccc(C)cc1NC(=O)C1C2C=CC(C2)C1C(=O)O (stereo not given)	2.08	–	3.66 µM [falling, full curve]
CCOc1ccccc1-c1noc(CCCC(=O)NC2CCCCC2)n1	-47.6	0.116 µM [falling, full curve, poor fit]	–
O=C(CCl)Nc1c(C(=O)Nc2ccc3c(c2)OCCO3)oc2ccccc12	-10.4	–	1.3 µM [falling, full curve, poor fit]
COC(=O)c1ccsc1NC(=O)C1=COCCO1	0.759	–	–
COc1ccc(-c2cc(C3CCN(Cc4ccc([N+](=O)[O-])cc4)CC3)[nH]n2)cc1	21.6	–	0.00461 µM [rising, full curve, poor fit]
Cc1cc(=O)n2nc(N3CCC(C(=O)NCc4cccc(Cl)c4)CC3)sc2n1	-11.2	2.91 µM [rising, single point]	29.1 µM [falling, single point]
Cc1ccc(CNC(=O)c2cc3c(=O)n(C)c4ccccc4c3n2C)cc1	-5.1	1.46 µM [rising, partial curve]	1.03 µM [rising, full curve]
CCCCCCCNC(=O)C1(CC2CC(c3ccc(Cl)cc3)=NO2)CCN(C(=O)OC(C)(C)C)CC1 (stereo not given)	25.7	–	29.1 µM [falling, single point]
N#CCCN1CCN(CCC#N)CC1	-25.1	0.0291 µM [falling, full curve, poor fit]	–
COc1ccccc1C(=O)N/C(=C\c1cn(S(=O)(=O)N(C)C)c2ccccc12)C(=O)N1CCOCC1	–	–	2.31 µM [rising, full curve]
CN(C(=O)c1ccc2c(=O)n3c(nc2c1)CCCCC3)c1cccc(Cl)c1	-26.2	0.231 µM [falling, full curve, poor fit]	–
COc1ccc(C(=O)N2CCN(c3nnnn3-c3ccccc3)CC2)cc1OC	-17.5	–	1.64 µM [rising, partial curve]
COc1ccc(C2=NN(C(=O)CSc3nnc(C)c(=O)n3N)C(c3ccco3)C2)cc1 (stereo not given)	–	0.411 µM [rising, full curve]	0.58 µM [rising, full curve]
Cc1ccc(NC(=O)N2CCC(C(=O)NCc3ccc(F)cc3)CC2)cc1	0.585	–	1.03 µM [falling, full curve]
O=C(O)c1cc2ccccc2n1-c1ccccc1	-26.6	2.59 µM [falling, full curve, poor fit]	18.4 µM [falling, partial curve]
CC(NC(=O)c1ccco1)C(=O)N1CCc2ccccc2C1 (stereo not given)	31.8	14.6 µM [rising, partial curve, poor fit]	–
COc1ccc(OC)c(NC(=O)COC(=O)CNC(=O)c2ccc(OC)c(OC)c2)c1	41.7	6.51 µM [falling, single point]	6.51 µM [falling, single point]
COc1ccc(-c2coc3c(C)c4oc(=O)c(CC(=O)O)c(C)c4cc23)cc1	-4.17	–	6.51 µM [falling, single point]
COc1ccc2c(c1OC)C[N+]1([O-])CCc3cc4c(cc3C1C2)OCO4 (stereo not given)	9.49	–	5.17 µM [rising, full curve, poor fit]

SMILES	cell number change [%]	AC50 [1]	AC50 [2]
O=C(CN1CCC(O)(c2ccc3c(c2)OCO3)CC1)OC1CCCCC1	17.8	0.651 µM [falling, partial curve]	–
CCCn1c(N)c(C(=O)CSc2nc3ncc(Cl)cc3[nH]2)c(=O)n(C)c1=O	24.5	–	0.164 µM [falling, full curve, poor fit]
CCN(CC)c1ccc(Nc2cc3n(c(=O)n2)CCc2cc(OC)c(OC)cc2-3)cc1	5.56	–	–
CC(C)(C)C(=O)O/N=C(\N)c1ccc([N+](=O)[O-])s1	-17.3	–	25.9 µM [falling, single point]
O=C1CN2NC(=S)N(c3ccc(Cl)cc3)C2=CN1c1ccc(Cl)cc1	-6.37	–	23.1 µM [falling, single point]
Cn1c(C(=O)OCC(=O)NCc2ccc(F)cc2)cc2occc21	63	4.11 µM [rising, partial curve, poor fit]	–
COc1ccc(CCn2c(N)cc(=O)[nH]c2=S)cc1OC	–	6.51 µM [rising, single point]	6.51 µM [rising, single point]
O=C(COC(=O)c1n[nH]c2ccccc12)NC(=O)NC12CC3CC(CC(C3)C1)C2	-34	0.58 µM [falling, full curve]	–
Cc1ccccc1NC(=O)Cn1nc(C(F)(F)F)cc1C1CC1	–	0.184 µM [rising, partial curve]	0.411 µM [rising, full curve]
CC(=O)C1=C(O)CC(c2ccccc2)CC1=NCCc1c(C)[nH]c2ccc(C)cc12 (stereo not given)	1.83	–	–
Cc1ccc(CN(CC(=O)NCCc2ccccc2)C(=O)c2csnn2)cc1	19.1	–	6.51 µM [falling, single point]
COc1ccc(C(CNC(=O)CCNC(=O)c2ccc(Br)cc2)N2CCOCC2)cc1 (stereo not given)	36.6	11.6 µM [rising, partial curve]	1.16 µM [rising, partial curve]
CCOCc1c(C(=O)NC2CCCCCC2)oc2ccccc12	102	13 µM [rising, partial curve, poor fit]	–
Cc1sc2ncn(CC(=O)Nc3ccccc3F)c(=O)c2c1-c1ccccc1	13.2	–	–
CC(Oc1ccc(Br)cc1)C(=O)N1CCC(C(N)=O)CC1 (stereo not given)	-27.1	–	14.6 µM [falling, single point]
CCN1CCN(C(=O)CN(c2ccccc2C)S(C)(=O)=O)CC1	-15.6	–	6.51 µM [falling, single point]
CCN(CC)C(=O)CSC1c2ccccc2C(=O)N1c1ccccc1 (stereo not given)	-20.7	–	–
Cc1c(Cc2ccccc2)c(=O)oc2cc(OCC(N)=O)ccc12	-11.9	0.00461 µM [falling, partial curve, poor fit]	–
Cn1cc(Br)c(C(=O)Nc2nccs2)n1	–	–	2.91 µM [rising, single point]
CCOC(=O)CSc1nnc2c(n1)C1(C)CCC2C1(C)C (stereo not given)	33.9	1.3 µM [rising, full curve, poor fit]	5.8 µM [rising, full curve]
Cc1coc2cc3oc(=O)c(CCC(=O)NCCCN4CCCC4=O)c(C)c3cc12	-10.8	–	3.66 µM [falling, partial curve, poor fit]

Reformatted comma-delimited: part of the list above
SMILES,cell number change [%],AC50 [1],AC50 [2]
CCOc1ccccc1-c1noc(CCCC(=O)NC2CCCCC2)n1,-47.6,"0.116 µM [falling, full curve, poor fit]",–
O=C(CCl)Nc1c(C(=O)Nc2ccc3c(c2)OCCO3)oc2ccccc12,-10.4,–,"1.3 µM [falling, full curve, poor fit]"
COC(=O)c1ccsc1NC(=O)C1=COCCO1,0.759,–,–
COc1ccccc1C(=O)N/C(=C\c1cn(S(=O)(=O)N(C)C)c2ccccc12)C(=O)N1CCOCC1,–,–,"2.31 µM [rising, full curve]"
COc1ccc(C(=O)N2CCN(c3nnnn3-c3ccccc3)CC2)cc1OC,-17.5,–,"1.64 µM [rising, partial curve]"
Cc1ccc(NC(=O)N2CCC(C(=O)NCc3ccc(F)cc3)CC2)cc1,0.585,–,"1.03 µM [falling, full curve]"
CC(NC(=O)c1ccco1)C(=O)N1CCc2ccccc2C1 (stereo not given),31.8,"14.6 µM [rising, partial curve, poor fit]",–
COc1ccc2c(c1OC)C[N+]1([O-])CCc3cc4c(cc3C1C2)OCO4 (stereo not given),9.49,–,"5.17 µM [rising, full curve, poor fit]"
CC(C)(C)C(=O)O/N=C(\N)c1ccc([N+](=O)[O-])s1,-17.3,–,"25.9 µM [falling, single point]"
O=C1CN2NC(=S)N(c3ccc(Cl)cc3)C2=CN1c1ccc(Cl)cc1,-6.37,–,"23.1 µM [falling, single point]"
Cc1ccccc1NC(=O)Cn1nc(C(F)(F)F)cc1C1CC1,–,"0.184 µM [rising, partial curve]","0.411 µM [rising, full curve]"
CC(=O)C1=C(O)CC(c2ccccc2)CC1=NCCc1c(C)[nH]c2ccc(C)cc12 (stereo not given),1.83,–,–
CCOCc1c(C(=O)NC2CCCCCC2)oc2ccccc12,102,"13 µM [rising, partial curve, poor fit]",–
Cc1sc2ncn(CC(=O)Nc3ccccc3F)c(=O)c2c1-c1ccccc1,13.2,–,–
CCN1CCN(C(=O)CN(c2ccccc2C)S(C)(=O)=O)CC1,-15.6,–,"6.51 µM [falling, single point]"
CCN(CC)C(=O)CSC1c2ccccc2C(=O)N1c1ccccc1 (stereo not given),-20.7,–,–
Cn1cc(Br)c(C(=O)Nc2nccs2)n1,–,–,"2.91 µM [rising, single point]"
CCOC(=O)CSc1nnc2c(n1)C1(C)CCC2C1(C)C (stereo not given),33.9,"1.3 µM [rising, full curve, poor fit]","5.8 µM [rising, full curve]"
Cc1coc2cc3oc(=O)c(CCC(=O)NCCCN4CCCC4=O)c(C)c3cc12,-10.8,–,"3.66 µM [falling, partial curve, poor fit]"

Next part.

SMILES	cell number change [%]	AC50 [1]	AC50 [2]
CCOC(=O)c1ccc(NC(=O)CSc2n[nH]c(-c3ccncc3)n2)cc1	–	–	6.51 µM [rising, single point]
Clc1ccc(-c2cn3cccnc3n2)cc1Cl	36.4	20.6 µM [rising, single point]	1.46 µM [rising, partial curve, poor fit]
Cc1ccc(C(=O)N(Cc2ccc3c(c2)OCO3)Cc2nc3ccccc3c(=O)[nH]2)cc1	-2.39	–	18.4 µM [rising, single point]
Cc1oc2ccc(OCc3ccc(Cl)cc3)cc2c1C(=O)O	-4.48	–	–
CC(=O)C1=C(C)NC(=O)NC1c1ccc2c(c1)OCO2 (stereo not given)	–	3.26 µM [falling, single point]	–
CC(Sc1nnc(-c2ccco2)n1C)C(=O)N(C)C1CCCCC1 (stereo not given)	-7.82	0.231 µM [falling, full curve, poor fit]	0.291 µM [falling, full curve]
CC(=O)c1sc(NC(=O)CCN2C(=O)c3ccccc3C2=O)nc1C	-30.8	–	–
COc1cc(-c2nnc(NC(=O)c3ccc(S(=O)(=O)N4CCOCC4)cc3)o2)cc(OC)c1OC	15.7	–	0.13 µM [rising, full curve, poor fit]
Cc1ccc(NC(=O)C(C)Sc2nc3nc(C)cc(C)n3n2)cc1 (stereo not given)	8.67	–	23.1 µM [falling, partial curve, poor fit]
Cc1n[nH]c(=O)c2c(NC(=O)COC(=O)COc3cccc(Br)c3)oc(C)c12	-2.56	–	3.26 µM [rising, single point]
COc1ccc(S(=O)(=O)N2C3CCC2CC(NC(=O)C2CC2)C3)cc1 (stereo not given)	10.7	–	0.00461 µM [falling, full curve, poor fit]
c1ccc2nc3ccccc3nc2c1	-7.98	–	1.84 µM [rising, partial curve]
COc1ccc(C(=O)Nc2cccc(C(C)=O)c2)c(OC)c1OC	–	–	0.58 µM [rising, single point]
CC(=O)c1ccc(NC(=O)c2noc(C)c2[N+](=O)[O-])cc1	12.7	–	5.17 µM [rising, single point]
CN(C)c1ccc(C(=O)NCCCSc2ccccc2)cc1	-8.8	–	–
CC(Sc1nnc(C2CC2)n1N)C(=O)NC1CCCCC1C (stereo not given)	-41.1	16.4 µM [falling, partial curve, poor fit]	–
COCCCNC(=O)CSc1ccsc1[N+](=O)[O-]	-16.8	–	–
O=C(CCN1C(=O)C2C3CCC(C3)C2C1=O)Nc1ccc(Cl)cc1Cl (stereo not given)	-10.1	–	–
Cc1cc(C)n(S(=O)(=O)/C=C/c2ccccc2)n1	-36.8	1.46 µM [falling, full curve, poor fit]	5.8 µM [falling, partial curve]
